# Literature values, collected in patent US20060020027A1, “Use of curcumanoids as histone acetyltransferases (HATs) inhibitors” (priority 2004, published 2006).
# At least one compound was matched to its structure with a doubt left.
# System: HAT
# Conditions: cited from earlier work
compound,measurement,value
C=C(C)[C@@H](CC=C(C)C)C[C@@]12C[C@@H](CC=C(C)C)C(C)(C)[C@@](CC=C(C)C)(C(=O)C(C(=O)c3ccc(O)c(O)c3)=C1O)C2=O [garcinol],type of inhibition for core histones,competitive
same,type of inhibition on changing the concentration of acetyl CoA,uncompetitive
